# These are yes or no findings as the source states them, for the method shown. In cells and extracts the contact can be indirect. Some entries that bind do so weakly or less than the wild type.
# Chains of the proteins cited; added tags and fusions are not shown.
# UniProt P63172: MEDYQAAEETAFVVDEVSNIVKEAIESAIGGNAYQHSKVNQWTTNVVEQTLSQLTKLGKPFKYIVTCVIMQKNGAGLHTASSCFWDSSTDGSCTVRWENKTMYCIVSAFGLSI
# Tests used:
# [1] = biological target: His-tagged HrpA-M2 (Neisseria meningitidis strain MC58) (UniProt C0KXI4); test: pull-down; purified His-tagged HrpA-M2 or HrpA-M3 bound to Ni-NTA resin, incubated 2 h at 4 °C with HeLa cell lysate over-expressing Myc-DYNLT1; washes with NaH2PO4 50 mM, NaCl 300 mM, imidazole 20 mM, pH 8.0; elution with 250 mM imidazole; western blot with anti-polyHis and anti-Myc; only the target purified
# [2] = biological target: His-tagged HrpA-M3 (Neisseria meningitidis strain MC58) (UniProt C0KXI4); test: as above
substance,measurement,setting,value
Myc-tagged DYNLT1 (from UniProt P63172 1-113),binding,[1],no binding
same,binding,[2],binds
